## Drug screen on melanoma cell lines: cell count

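The test systems are human melanoma cell lines, treated with two drugs together for 72 h and then stained and imaged. The read-out is cell count (nuclei) in % of the DMSO control; lower values mean stronger growth inhibition or killing. Concentrations were fixed for each drug; these are the lower of two levels, a fifth of the higher. The file gives one value for each pair and line, without errors, so small differences may be noise.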 Only some of the drugs and lines screened are listed, without regard to their results. An entry leaves out what has no value listed here. A dash means that no value is listed here.

First drug in all entries: ZM336372, 2 µM, Cc1ccc(NC(=O)c2cccc(N(C)C)c2)cc1NC(=O)c1ccc(O)cc1

Drug key:
KU-0063794: COc1ccc(-c2ccc3c(N4CCOCC4)nc(N4C[C@@H](C)O[C@@H](C)C4)nc3n2)cc1CO at 0.02 µM
U73122: COc1ccc2c(c1)CCC1C2CCC2(C)C(NCCCCCCN3C(=O)C=CC3=O)CCC12 (stereo unspecified) at 0.4 µM
TCS401: O=C(O)C(=O)Nc1sc2c(c1C(=O)O)CCNC2 at 1.67 µM
NVP-TAE684: COc1cc(N2CCC(N3CCN(C)CC3)CC2)ccc1Nc1ncc(Cl)c(Nc2ccccc2S(=O)(=O)C(C)C)n1 at 0.08 µM
sunitinib: CCN(CC)CCNC(=O)c1c(C)[nH]c(/C=C2\C(=O)Nc3ccc(F)cc32)c1C at 0.4 µM
embelin: CCCCCCCCCCCC1=C(O)C(=O)C=C(O)C1=O at 1.2 µM
Src-I1: COc1cc2ncnc(Nc3ccc(Oc4ccccc4)cc3)c2cc1OC at 2 µM

Cell line,U73122,Src-I1,sunitinib,KU-0063794,embelin,TCS401,NVP-TAE684
501mel,89.3,90.3,-,86.7,80.5,81.5,114
MEL-HO,91.5,105,98.3,101,80.2,96.9,102
C32,83.8,110,94.7,93.8,99.5,94.4,101
COLO 800,95.2,128,86.0,87.4,197,142,91.1
COLO 792,99.7,94.1,103,101,108,102,125
COLO 829,115,97.9,141,89.7,112,83.6,108
A101D,100,111,90.3,95.2,80.9,90.1,105
LB2518-MEL,93.8,97.2,91.2,93.6,83.2,102,102
LOX IMVI,90.5,127,110,78.3,129,116,139
G-361,117,113,100,105,114,113,115
A2058,102,97.6,110,91.2,102,100,109
IPC-298,88.2,82.7,87.2,80.1,85.5,78.7,92.3
IST-MEL1,97.8,95.0,91.9,98.5,96.6,100,100
A375,85.6,110,84.8,91.9,118,90.9,83.8

For reference, 2 entries once more:

{"cell line": "A2058", "U73122": 102, "Src-I1": 97.6, "sunitinib": 110, "KU-0063794": 91.2, "embelin": 102, "TCS401": 100, "NVP-TAE684": 109}
{"cell line": "A101D", "U73122": 100, "Src-I1": 111, "sunitinib": 90.3, "KU-0063794": 95.2, "embelin": 80.9, "TCS401": 90.1, "NVP-TAE684": 105}

From a melanoma drug combination screen (doi:10.1371/journal.pone.0140310); values rounded.